Results published in patent publication US5665861A (HaemoPep Pharma GmbH, priority 1987, dated 1997).
Strings that start with PEPTIDE1 are HELM notation: dots part the residues, brackets hold end groups and non-standard residues.

Experiment: Boc solid-phase peptide synthesis; Merrifield
Details: whole synthesis, scale of the general procedure 1.22 g of resin

PEPTIDE1{T.A.P.R.S.L.R.R.S.S.C.F.G.G.R.M.D.R.I.G.A.Q.S.G.L.G.C.N.S.F.R.Y}$PEPTIDE1,PEPTIDE1,11:R3-27:R3$$$V2.0
final purity (method not given): more than 98%
